Results are given in words; binding and its absence hold for the method and conditions named. For some assays here: In cells and extracts the contact can be indirect. Some results given as binding are weak or reduced against the parent protein; the word gives no strength.

Sequences of proteins named here, by UniProt entry; tags and fusion partners are left off.
UniProt O15379: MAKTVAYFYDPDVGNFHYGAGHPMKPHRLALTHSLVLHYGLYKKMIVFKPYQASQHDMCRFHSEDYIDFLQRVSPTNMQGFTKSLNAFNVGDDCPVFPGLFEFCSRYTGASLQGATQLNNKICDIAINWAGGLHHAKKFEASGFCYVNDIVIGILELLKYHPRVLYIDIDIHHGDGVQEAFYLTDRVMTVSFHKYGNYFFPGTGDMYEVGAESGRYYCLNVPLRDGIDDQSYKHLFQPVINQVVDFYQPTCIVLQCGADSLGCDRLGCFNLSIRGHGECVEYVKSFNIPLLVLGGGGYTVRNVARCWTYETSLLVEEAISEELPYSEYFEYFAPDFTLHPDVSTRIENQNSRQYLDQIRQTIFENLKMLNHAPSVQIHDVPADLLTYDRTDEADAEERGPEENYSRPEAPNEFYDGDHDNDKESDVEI
UniProt P12004: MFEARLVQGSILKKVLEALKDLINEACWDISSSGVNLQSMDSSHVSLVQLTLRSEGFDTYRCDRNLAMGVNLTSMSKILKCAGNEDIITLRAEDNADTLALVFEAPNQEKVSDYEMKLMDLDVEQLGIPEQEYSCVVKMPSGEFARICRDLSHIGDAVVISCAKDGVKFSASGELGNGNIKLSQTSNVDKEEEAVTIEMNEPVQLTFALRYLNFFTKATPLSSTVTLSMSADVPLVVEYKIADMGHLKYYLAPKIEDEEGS
UniProt Q09028: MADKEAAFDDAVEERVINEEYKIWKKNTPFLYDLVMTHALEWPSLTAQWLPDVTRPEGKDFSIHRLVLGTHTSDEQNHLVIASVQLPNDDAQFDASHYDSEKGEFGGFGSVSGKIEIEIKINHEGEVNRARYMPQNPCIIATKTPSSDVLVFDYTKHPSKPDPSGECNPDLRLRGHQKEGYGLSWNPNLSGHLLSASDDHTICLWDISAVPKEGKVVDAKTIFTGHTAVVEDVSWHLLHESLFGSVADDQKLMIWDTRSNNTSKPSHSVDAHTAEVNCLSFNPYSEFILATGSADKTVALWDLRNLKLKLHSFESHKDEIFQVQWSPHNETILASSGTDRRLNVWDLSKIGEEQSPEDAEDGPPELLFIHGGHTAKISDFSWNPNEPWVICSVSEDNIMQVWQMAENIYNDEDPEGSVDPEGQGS

For two substances, binding results are on record in paper PMC3718806, “Inhibition of Histone Deacetylase 3 Causes Replication Stress in Cutaneous T Cell Lymphoma” (PLoS ONE, 2013).

Assay [1] deals with histone deacetylase 3 (human (endogenous in HeLa)) (UniProt O15379). The assay can be described thus: SEC; soluble chromatin (legend: nuclear lysates) from HeLa cells on Superose 6 10/300 GL; 0.5 ml fractions, trichloroacetic acid precipitated, western blot. Background: SEC sorts molecules by how far they enter the pores of the column.
For assay [2] the target is unchanged. The assay can be described thus: co-IP; endogenous HDAC3 and RbAp48 from HeLa cells; two different HDAC3 antibodies (A, B); rabbit IgG as negative control.

Regarding PCNA (from UniProt P12004 1-261), the binding entry in assay [1] was “no binding”.
With RbAp48 (from UniProt Q09028 1-425), the binding entry in assay [2] is given as “binds”.
